Our source for the binding values is article doi:10.1101/2021.06.10.447992.

Results are given in words; binding and its absence hold for the method and conditions named. In cells and extracts the contact can be indirect. These calls come from enrichment with a bait or labelling near it, and not all partners need be listed. Where a sequence is shown, tags or fusion partners need not be part of it.

The test addresses T1, COA7 with a C-terminal Flag epitope, expressed in COA7 knockout HEK293T cells (human) (UniProt Q96BR5).
T1 sequence: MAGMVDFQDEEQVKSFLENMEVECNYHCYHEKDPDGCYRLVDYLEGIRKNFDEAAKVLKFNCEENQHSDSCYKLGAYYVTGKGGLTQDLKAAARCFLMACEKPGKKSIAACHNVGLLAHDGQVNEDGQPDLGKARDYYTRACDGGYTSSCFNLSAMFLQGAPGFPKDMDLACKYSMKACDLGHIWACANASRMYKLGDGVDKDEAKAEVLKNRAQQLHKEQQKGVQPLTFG
In words: affinity purification with mass spectrometry.

B1: CHCHD4 (protein, UniProt Q8N4Q1 1-142)
chain: MSYCRQEGKDRIIFVTKEDHETPSSAELVADDPNDPYEEHGLILPNGNINWNCPCLGGMASGPCGEQFKSAFSCFHYSTEEIKGSDCVDQFRAMQECMQKYPDLYPQEDEDEEEEREKKPAEQAEETAPIEATATKEEEGSS
For the molecule B1, the binding entry was “binds”.

B2: mitochondrial protease LONP1 (enzyme, UniProt P36776 68-959)
chain: FWEASSRGGGAFSGGEDASEGGAEEGAGGAGGSAGAGEGPVITALTPMTIPDVFPHLPLIAITRNPVFPRFIKIIEVKNKKLVELLRRKVRLAQPYVGVFLKRDDSNESDVVESLDEIYHTGTFAQIHEMQDLGDKLRMIVMGHRRVHISRQLEVEPEEPEAENKHKPRRKSKRGKKEAEDELSARHPAELAMEPTPELPAEVLMVEVENVVHEDFQVTEEVKALTAEIVKTIRDIIALNPLYRESVLQMMQAGQRVVDNPIYLSDMGAALTGAESHELQDVLEETNIPKRLYKALSLLKKEFELSKLQQRLGREVEEKIKQTHRKYLLQEQLKIIKKELGLEKDDKDAIEEKFRERLKELVVPKHVMDVVDEELSKLGLLDNHSSEFNVTRNYLDWLTSIPWGKYSNENLDLARAQAVLEEDHYGMEDVKKRILEFIAVSQLRGSTQGKILCFYGPPGVGKTSIARSIARALNREYFRFSVGGMTDVAEIKGHRRTYVGAMPGKIIQCLKKTKTENPLILIDEVDKIGRGYQGDPSSALLELLDPEQNANFLDHYLDVPVDLSKVLFICTANVTDTIPEPLRDRMEMINVSGYVAQEKLAIAERYLVPQARALCGLDESKAKLSSDVLTLLIKQYCRESGVRNLQKQVEKVLRKSAYKIVSGEAESVEVTPENLQDFVGKPVFTVERMYDVTPPGVVMGLAWTAMGGSTLFVETSLRRPQDKDAKGDKDGSLEVTGQLGEVMKESARIAYTFARAFLMQHAPANDYLVTSHIHLHVPEGATPKDGPSAGCTIVTALLSLAMGRPVRQNLAMTGEVSLTGKILPVGGIKEKTIAAKRAGVTCIVLPAENKKDFYDLAAFITEGLEVHFVEHYREIFDIAFPDEQAEALAVER
As to B2, the binding entry was “binds”.

B3: coproporphyrinogen oxidase (CPOX) (enzyme, UniProt P36551 111-454)
chain: TSLGRPEEEEDELAHRCSSFMAPPVTDLGELRRRPGDMKTKMELLILETQAQVCQALAQVDGGANFSVDRWERKEGGGGISCVLQDGCVFEKAGVSISVVHGNLSEEAAKQMRSRGKVLKTKDGKLPFCAMGVSSVIHPKNPHAPTIHFNYRYFEVEEADGNKQWWFGGGCDLTPTYLNQEDAVHFHRTLKEACDQHGPDLYPKFKKWCDDYFFIAHRGERRGIGGIFFDDLDSPSKEEVFRFVQSCARAVVPSYIPLVKKHCDDSFTPQEKLWQQLRRGRYVEFNLLYDRGTKFGLFTPGSRIESILMSLPLTARWEYMHSPSENSKEAEILEVLRHPRDWVR
As to B3, the binding result was “binds”.

B4: RCN2 (protein, UniProt Q14257 23-317)
chain: GKAEELHYPLGERRSDYDREALLGVQEDVDEYVKLGHEEQQKRLQAIIKKIDLDSDGFLTESELSSWIQMSFKHYAMQEAKQQFVEYDKNSDDTVTWDEYNIQMYDRVIDFDENTALDDAEEESFRKLHLKDKKRFEKANQDSGPGLSLEEFIAFEHPEEVDYMTEFVIQEALEEHDKNGDGFVSLEEFLGDYRWDPTANEDPEWILVEKDRFVNDYDKDNDGRLDPQELLPWVVPNNQGIAQEEALHLIDEMDLNGDKKLSEEEILENPDLFLTSEATDYGRQLHDDYFYHDEL
On to B4, for which the binding result is “binds”.
